Source: publication PMC11056707
Results are given in words; binding and its absence hold for the method and conditions named. Binding seen in cells or lysates may run through a third protein. Some binding calls cover weakened binding; strength is not graded here.

The chains behind the UniProt entries cited, without tags or fusion partners.
UniProt P53350: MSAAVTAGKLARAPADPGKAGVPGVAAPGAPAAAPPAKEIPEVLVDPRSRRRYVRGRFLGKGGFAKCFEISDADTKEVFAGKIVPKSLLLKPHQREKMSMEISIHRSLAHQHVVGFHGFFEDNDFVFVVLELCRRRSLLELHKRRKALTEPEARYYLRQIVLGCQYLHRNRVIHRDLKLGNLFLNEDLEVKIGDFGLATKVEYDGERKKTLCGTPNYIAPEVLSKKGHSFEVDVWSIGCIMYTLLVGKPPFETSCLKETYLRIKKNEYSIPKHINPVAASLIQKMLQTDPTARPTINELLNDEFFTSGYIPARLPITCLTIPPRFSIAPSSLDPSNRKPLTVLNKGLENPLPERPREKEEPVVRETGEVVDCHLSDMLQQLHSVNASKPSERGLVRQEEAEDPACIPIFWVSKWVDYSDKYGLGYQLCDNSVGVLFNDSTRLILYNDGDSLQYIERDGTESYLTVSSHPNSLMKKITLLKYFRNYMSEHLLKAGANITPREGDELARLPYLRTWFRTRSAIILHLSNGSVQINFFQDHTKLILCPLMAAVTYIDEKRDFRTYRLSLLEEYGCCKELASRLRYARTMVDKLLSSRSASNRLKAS
UniProt O94964: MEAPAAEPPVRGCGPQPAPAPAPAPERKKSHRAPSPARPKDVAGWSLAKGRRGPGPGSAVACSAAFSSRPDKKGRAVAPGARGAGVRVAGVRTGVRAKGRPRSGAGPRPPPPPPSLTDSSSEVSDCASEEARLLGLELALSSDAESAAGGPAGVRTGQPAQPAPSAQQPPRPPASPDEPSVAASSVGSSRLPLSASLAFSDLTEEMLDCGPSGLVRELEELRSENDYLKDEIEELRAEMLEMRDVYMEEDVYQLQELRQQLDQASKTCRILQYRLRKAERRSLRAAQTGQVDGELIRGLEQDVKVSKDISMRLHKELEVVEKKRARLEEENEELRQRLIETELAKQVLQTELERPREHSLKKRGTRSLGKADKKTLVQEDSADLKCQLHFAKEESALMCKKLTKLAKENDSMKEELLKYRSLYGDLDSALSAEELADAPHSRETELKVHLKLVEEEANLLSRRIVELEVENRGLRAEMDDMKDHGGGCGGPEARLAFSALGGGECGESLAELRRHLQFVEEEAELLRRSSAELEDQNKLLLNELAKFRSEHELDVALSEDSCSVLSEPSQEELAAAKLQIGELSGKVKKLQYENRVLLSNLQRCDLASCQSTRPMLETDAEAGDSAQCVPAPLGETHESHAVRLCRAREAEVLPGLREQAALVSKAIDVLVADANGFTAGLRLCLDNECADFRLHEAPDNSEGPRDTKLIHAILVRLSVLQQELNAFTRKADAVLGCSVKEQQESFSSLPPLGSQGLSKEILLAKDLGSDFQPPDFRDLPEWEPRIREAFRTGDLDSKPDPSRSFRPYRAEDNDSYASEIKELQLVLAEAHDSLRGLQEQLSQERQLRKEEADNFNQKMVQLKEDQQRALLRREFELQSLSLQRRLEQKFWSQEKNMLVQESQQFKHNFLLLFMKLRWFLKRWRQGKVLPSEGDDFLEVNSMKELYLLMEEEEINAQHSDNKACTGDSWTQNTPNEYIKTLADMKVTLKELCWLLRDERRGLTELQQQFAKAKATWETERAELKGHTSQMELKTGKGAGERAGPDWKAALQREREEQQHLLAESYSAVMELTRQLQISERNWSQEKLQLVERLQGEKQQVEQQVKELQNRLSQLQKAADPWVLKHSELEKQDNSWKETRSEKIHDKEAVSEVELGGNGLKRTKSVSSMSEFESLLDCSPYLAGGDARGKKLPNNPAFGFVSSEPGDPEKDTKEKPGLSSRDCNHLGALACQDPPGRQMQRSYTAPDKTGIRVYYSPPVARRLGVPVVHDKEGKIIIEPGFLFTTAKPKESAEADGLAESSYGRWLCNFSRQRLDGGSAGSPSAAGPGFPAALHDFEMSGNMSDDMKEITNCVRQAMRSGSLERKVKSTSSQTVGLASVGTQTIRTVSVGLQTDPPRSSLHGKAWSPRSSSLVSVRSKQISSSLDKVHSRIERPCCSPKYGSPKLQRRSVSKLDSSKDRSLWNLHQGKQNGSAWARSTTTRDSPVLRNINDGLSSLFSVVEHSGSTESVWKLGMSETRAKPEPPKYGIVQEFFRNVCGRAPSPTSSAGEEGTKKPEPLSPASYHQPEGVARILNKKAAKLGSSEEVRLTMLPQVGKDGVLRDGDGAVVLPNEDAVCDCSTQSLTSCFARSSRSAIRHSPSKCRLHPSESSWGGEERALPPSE

Target: HA-PLK1 (UniProt P53350)
Test: co-IP; HEK293T cells transfected with Flag-Soga1 and HA-PLK1; lysates immunoprecipitated with Flag or HA antibodies; lysis buffer 20 mM Tris-HCl pH 8.0, 100 mM NaCl, 0.5% NP-40; 4°C

Substance: Flag-Soga1 (suppressor of glucose by autophagy 1) (from UniProt O94964 1-1661)
- binding: binds
